Data: paper PMC6925144, “A prospective compound screening contest identified broader inhibitors for Sirtuin 1” (Scientific Reports, 2019)
In all, about 3,200 compounds were measured (“TSA(without NAD+) / Primary screening (TSA) / delta Tm (K)”: median about -0.07, highest 2% from about 0.37 on). The list shows a part of the results.

Protein sequences, listed by entry. Tags and fused reporters are not part of them. Residues count along the entry.
UniProt Q96EB6, 2-747 limits assumed: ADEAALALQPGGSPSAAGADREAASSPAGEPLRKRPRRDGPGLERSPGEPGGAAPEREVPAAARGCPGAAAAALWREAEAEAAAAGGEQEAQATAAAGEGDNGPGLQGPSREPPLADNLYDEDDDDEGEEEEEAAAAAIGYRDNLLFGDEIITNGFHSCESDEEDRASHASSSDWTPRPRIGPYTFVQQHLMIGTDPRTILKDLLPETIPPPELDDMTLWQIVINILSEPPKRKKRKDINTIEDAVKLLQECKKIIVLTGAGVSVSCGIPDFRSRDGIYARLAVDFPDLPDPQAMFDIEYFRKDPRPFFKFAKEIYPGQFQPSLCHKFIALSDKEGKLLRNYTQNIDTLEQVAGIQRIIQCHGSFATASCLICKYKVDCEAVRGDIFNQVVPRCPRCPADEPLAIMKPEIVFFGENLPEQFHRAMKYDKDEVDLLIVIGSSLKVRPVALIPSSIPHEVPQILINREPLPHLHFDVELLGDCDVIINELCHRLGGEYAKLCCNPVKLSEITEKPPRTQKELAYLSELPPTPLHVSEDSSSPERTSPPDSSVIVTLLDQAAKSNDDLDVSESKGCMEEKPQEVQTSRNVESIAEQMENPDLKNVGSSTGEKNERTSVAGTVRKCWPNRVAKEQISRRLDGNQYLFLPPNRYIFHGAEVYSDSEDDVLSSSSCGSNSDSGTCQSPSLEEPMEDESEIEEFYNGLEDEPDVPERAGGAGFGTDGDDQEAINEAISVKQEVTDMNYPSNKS

What follows are compounds tested against NAD-dependent deacetylase Sirtuin 1 (human, UniProt Q96EB6) (assay: primary screen, delta tm). Settings: 10 µM.
Set-up: single well (n = 1)
How it was run: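 Thermal shift of Sirtuin 1 measured without NAD+, compound at 10 µM (n = 1); value is ΔTm, with hits defined as ΔTm > 0.45 K or < −1.5 K. Hits retested at 5, 10, 20 µM (n = 4) and counterscreened on bovine carbonic anhydrase and ABL1 SH2 domain.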

Going from `CCN(CC(=O)Nc1ccc(NC(C)=O)cc1)C(=O)CCCSc1nc2ccccc2[nH]1` to `O=C(NCC1CCCO1)Nc1ccc(NC(=O)c2ccccn2)cc1` (stereo not drawn), the “TSA(without NAD+) / Primary screening (TSA) / delta Tm (K)” value falls from 0.22 K to 0.07 K.

First: O=C(O)CCn1cc(C=C2C(=O)NC(=O)NC2=O)c(-c2ccc(Br)cc2)n1
Second: Cc1ccc2nc(Cl)c(C=C3C(=O)NC(=S)NC3=O)c(=O)n2c1
The “TSA(without NAD+) / Primary screening (TSA) / delta Tm (K)” value of the first is lower: -0.32 K for the first, -0.07 K for the second.

Compared with `O=C(OCC(=O)C12CC3CC(CC(C3)C1)C2)c1ccc(N2C(=O)c3ccccc3C2=O)cc1`, `N#Cc1ccccc1Sc1ccccc1C(=O)OCC(=O)NC(=O)NC12CC3CC(CC(C3)C1)C2` is lower in “TSA(without NAD+) / Primary screening (TSA) / delta Tm (K)” value: -0.01 K for the first, -0.21 K for the second.

Compared with `O=C(CCc1nc2ccccc2c(=O)[nH]1)Nc1cccc(S(=O)(=O)NCc2ccco2)c1`, `NS(=O)(=O)Nc1cccc(CNC(=O)CCCc2nc3ccccc3c(=O)[nH]2)c1` is lower in “TSA(without NAD+) / Primary screening (TSA) / delta Tm (K)” value: -0.08 K for the first, -0.13 K for the second.

Going from `Cc1c(C)n(-c2ccc(O)cc2)c2ncnc(N)c12` to `Nc1ncnc2c1cnn2-c1ccncc1`, the “TSA(without NAD+) / Primary screening (TSA) / delta Tm (K)” value falls from -0.07 K to -0.23 K.

First: O=C(NC1CCN(C(=O)Nc2ccc([N+](=O)[O-])cc2)CC1)c1ccccn1
Second: Cn1cnc(-c2ccc(OCC(=O)Nc3cccc(C(=O)NC4CC4)c3)cc2)n1
The “TSA(without NAD+) / Primary screening (TSA) / delta Tm (K)” value of the first is lower: -0.08 K for the first, -0.02 K for the second.

Going from `NC1=Nc2nc3ccccc3n2C(c2ccc(-c3ccc(C(=O)O)cc3)o2)N1` (stereo not drawn) to `O=C1NC(=S)N/C1=C\c1ccccc1OCc1ccc(C(=O)O)cc1`, the “TSA(without NAD+) / Primary screening (TSA) / delta Tm (K)” value falls from 1.36 K to 0.38 K.

Going from `CN/C(=N/c1ccc2ccccc2c1)c1ccccc1` to `CC(C(=O)Nc1cccc2ccccc12)N1CCc2ccc(O)cc2CC1` (stereo not drawn), the “TSA(without NAD+) / Primary screening (TSA) / delta Tm (K)” value falls from -0.08 K to -0.14 K.

Compared with `Cc1nc(C(=O)NC(Cc2ccccc2)C(=O)N(C)C)ccc1C#N` (stereo not drawn), `Cc1nc(C)c(CC(=O)Oc2ccccc2)c(=O)[nH]1` is lower in “TSA(without NAD+) / Primary screening (TSA) / delta Tm (K)” value: 0.12 K for the first, -0.27 K for the second.

First: Cc1nc(N2CCN(c3ncccc3C(N)=O)CC2)c2c3c(sc2n1)CCC3
Second: COc1ccnc(N2CCN(C(=O)c3ccc(C(N)=O)s3)CC2)n1
The “TSA(without NAD+) / Primary screening (TSA) / delta Tm (K)” value of the first is lower: -0.22 K for the first, 0.06 K for the second.

First: O=C(Nc1ccccc1Cc1ccccc1)C12CC3CC(CC(Br)(C3)C1)C2
Second: CCOc1ccccc1NC(=O)c1cccc(S(=O)(=O)NC(C)C23CC4CC(CC(C4)C2)C3)c1 (stereo not drawn)
The “TSA(without NAD+) / Primary screening (TSA) / delta Tm (K)” value of the first is higher: 0.18 K for the first, 0.16 K for the second.

Compared with `Cc1cccc(-n2ccnc2SCC(=O)Nc2ccc(S(=O)(=O)Nc3nccs3)cc2)c1C`, `Cc1ccc(NC(=O)c2cc3c(nc4sccn43)s2)c(O)c1` is higher in “TSA(without NAD+) / Primary screening (TSA) / delta Tm (K)” value: 0.08 K for the first, 0.17 K for the second.

Going from `CCc1cc2c(N3CCN(Cc4ccc5c(c4)OCO5)CC3)ncnc2s1` to `Cn1ncc2c(N3CCN(CC(=O)Nc4ccc(Cl)cn4)CC3)ncnc21`, the “TSA(without NAD+) / Primary screening (TSA) / delta Tm (K)” value rises from -0.05 K to 0.06 K.

First: O=C(CCn1ccccc1=O)Nc1cccnc1
Second: Cn1c(-c2cccnc2)[n+](C)c2ccccc21
The “TSA(without NAD+) / Primary screening (TSA) / delta Tm (K)” value of the first is higher: -0.11 K for the first, -0.18 K for the second.

Going from `NC(=O)C1CC(O)CN1c1ncnc2cc(-c3ccc(Br)cc3)sc12` (stereo not drawn) to `OCCN(c1ncnc2c1oc1ccccc12)C1CC1`, the “TSA(without NAD+) / Primary screening (TSA) / delta Tm (K)” value falls from -0.12 K to -0.33 K.

Compared with `CC(O)C(N)CN` (stereo not drawn), `CC(C)C(C)CN` (stereo not drawn) is lower in “TSA(without NAD+) / Primary screening (TSA) / delta Tm (K)” value: -0.04 K for the first, -0.21 K for the second.

Compared with `Cc1ccc2c(c1)c(=O)n(C)c1nnc(CN3CCc4ccccc4C3)n21`, `Cc1ccc(C(=O)C2CCN(c3cc(=O)n4ccccc4n3)CC2)cc1` is higher in “TSA(without NAD+) / Primary screening (TSA) / delta Tm (K)” value: -0.32 K for the first, -0.22 K for the second.

Going from `CC1CC1c1ccc(CCC(=O)NCC2CCCN(Cc3cccs3)C2)o1` (stereo not drawn) to `Cc1c(C(=O)C2=C(O)C(=O)N(CCCN3CCOCC3)C2c2cccs2)cnn1-c1ccccc1` (stereo not drawn), the “TSA(without NAD+) / Primary screening (TSA) / delta Tm (K)” value rises from -0.23 K to -0.02 K.

Compared with `O=C1/C(=C/c2ccccc2OC(F)F)Oc2cc(O)ccc21`, `COc1ccc(CN(C)C(=O)c2cnc3ccccn3c2=O)cc1F` is higher in “TSA(without NAD+) / Primary screening (TSA) / delta Tm (K)” value: 0.02 K for the first, 0.12 K for the second.

Going from `O=C(O)c1ccc2[nH]c(S)nc2c1` to `O=C(O)c1ccc2[nH]c(CO)nc2c1`, the “TSA(without NAD+) / Primary screening (TSA) / delta Tm (K)” value falls from -0.13 K to -0.22 K.

First: O=C(/C=C/c1ccccn1)NCc1ccc(OCC2CCCO2)cc1 (stereo not drawn)
Second: COc1ccc(CCCC(=O)Nc2ccc(C(N)=O)cc2OCC(F)F)cc1
The “TSA(without NAD+) / Primary screening (TSA) / delta Tm (K)” value of the first is higher: 0.09 K for the first, -0.23 K for the second.

Going from `CCc1nsc(NCc2cccnc2N2CCC(C(N)=O)CC2)n1` to `CCCc1cc(N2CCC(Cc3ccccc3)CC2)n2ncnc2n1`, the “TSA(without NAD+) / Primary screening (TSA) / delta Tm (K)” value falls from -0.01 K to -0.08 K.

Compared with `COCCNc1oc2c(c1-c1ccccc1[N+](=O)[O-])c(=O)oc1c(C)cccc12`, `CCCOc1cccc(C2C(C(=O)c3ccccc3)=C(O)C(=O)N2CCCN2CCOCC2)c1` (stereo not drawn) is lower in “TSA(without NAD+) / Primary screening (TSA) / delta Tm (K)” value: 0.03 K for the first, -0.08 K for the second.

First: COc1ccc(CCSc2nnc(-c3cccnc3)n2N)cc1
Second: CCOc1ccc(-n2c(C)cc(C(=O)COc3ccc(C(N)=O)cc3)c2C)cc1
The “TSA(without NAD+) / Primary screening (TSA) / delta Tm (K)” value of the first is lower: -0.03 K for the first, 0.03 K for the second.

Going from `O=C1OC(C(=O)O)Cc2ccccc21` (stereo not drawn) to `COc1ccc(C(=O)C2=C(O)C(=O)N(CCN3CCOCC3)C2c2ccccn2)cc1OC` (stereo not drawn), the “TSA(without NAD+) / Primary screening (TSA) / delta Tm (K)” value rises from 0.02 K to 0.17 K.

Going from `COCc1nnc(S)[nH]1` to `CC(c1ccccc1F)N(C)C(=O)CN(C)c1ncnc2nc[nH]c12` (stereo not drawn), the “TSA(without NAD+) / Primary screening (TSA) / delta Tm (K)” value falls from -0.02 K to -0.03 K.

First: Cn1cc(S(=O)(=O)N2CCN(C(=O)Cn3cnc4ccc(F)cc4c3=O)CC2)cc1C(N)=O
Second: O=C(CC12CC3CC(CC(C3)C1)C2)NNC(=O)c1ccc(NS(=O)(=O)/C=C/c2ccccc2)cc1
The “TSA(without NAD+) / Primary screening (TSA) / delta Tm (K)” value of the first is lower: -0.04 K for the first, 0.17 K for the second.

First: N#Cc1c2c(c(Cl)n3c1nc1ccccc13)CCCC2
Second: COc1cccc(NC(=O)CN(C)C(=O)c2ccccc2SCC(=O)NC23CC4CC(CC(C4)C2)C3)c1
The “TSA(without NAD+) / Primary screening (TSA) / delta Tm (K)” value of the first is lower: -0.02 K for the first, 0.07 K for the second.

Compared with `CC(C)=CCN`, `Cc1cc(C)c(NC(=O)CN(C)C(=O)CNC(=O)C(C)(C)C)c(C)c1` is higher in “TSA(without NAD+) / Primary screening (TSA) / delta Tm (K)” value: -0.13 K for the first, 0.02 K for the second.

Going from `COc1cc(OC)cc(C(=O)NCC(=O)OCC(=O)NCC(=O)Nc2ccc(F)c(F)c2F)c1` to `C=CCN(CCO)C(=O)Nc1cccc(I)c1`, the “TSA(without NAD+) / Primary screening (TSA) / delta Tm (K)” value falls from 0.09 K to -0.08 K.
